About 10,000 (2.8%) of roughly 360,000 compounds were called active. The inconclusive results got no clear call from the source; some entries with a clear call stand among them for comparison. Calls follow the shape of the dose curve; as a rule, active = well fitted inhibition curve with a large enough effect; inconclusive = small, poorly fitted or top-dose-only effect; inactive = flat fitted curve, though single readings scatter. Potencies of inconclusive entries are doubtful fits and often do not repeat.
Each molecule was assayed against Serine/threonine-protein kinase PLK1 (Homo sapiens) (UniProt P53350) (assay: qHTS for Inhibitors of PLK1-PDB (polo-like kinase 1 - polo-box domain): Primary Screen). Conditions: Plk1 PBD binding of FITC phosphopeptide, fluorescence polarization.
% is scaled to controls: 0 for no effect and ±100 for the full control effect; potency is read from the fitted curve at half-maximal effect.
Also: nearly all actives have a fitted effect of over 65% in size.
For max response, negative = inhibition in this document: series mostly up to about 57 µM.

Amino acid sequences for entries named in this document (tags omitted).
UniProt P53350, whole entry, looked up: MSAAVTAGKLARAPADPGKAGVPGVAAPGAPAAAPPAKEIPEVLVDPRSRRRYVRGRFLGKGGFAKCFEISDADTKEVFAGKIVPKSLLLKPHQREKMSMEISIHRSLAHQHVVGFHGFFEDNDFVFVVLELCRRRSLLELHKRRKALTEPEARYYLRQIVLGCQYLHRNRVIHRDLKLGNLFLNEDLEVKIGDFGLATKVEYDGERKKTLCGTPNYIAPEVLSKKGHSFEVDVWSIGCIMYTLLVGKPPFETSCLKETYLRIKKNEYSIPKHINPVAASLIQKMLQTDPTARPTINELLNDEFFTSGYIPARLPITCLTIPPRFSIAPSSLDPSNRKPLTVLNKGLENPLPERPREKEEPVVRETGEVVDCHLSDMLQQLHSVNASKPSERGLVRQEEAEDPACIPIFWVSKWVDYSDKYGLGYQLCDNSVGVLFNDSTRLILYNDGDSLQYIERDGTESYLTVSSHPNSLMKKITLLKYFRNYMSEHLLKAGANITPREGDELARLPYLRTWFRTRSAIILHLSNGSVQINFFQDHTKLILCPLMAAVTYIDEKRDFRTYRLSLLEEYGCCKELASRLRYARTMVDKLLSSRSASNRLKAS

| SMILES | Potency | max response, negative = inhibition |
| --- | --- | --- |
| O=C(O)c1cc2ccccc2cc1Nc1ccccc1 | inconclusive: 42.3 µM [inhibitor, partial curve, poor fit] | – |
| CSc1nc(O)c(C(c2ccc(OC(C)C)cc2)c2c(O)nc(SC)[nH]c2=O)c(=O)[nH]1 | active: 10.6 µM | – |
| Cc1ccc(C(=O)/C=C/NCc2ccc(F)cc2)cc1 | – | inactive: -11.5% |
| Cc1ccnc(NS(=O)(=O)c2ccc(NC(=O)c3ccc(S(=O)(=O)N(C)C)cc3)cc2)n1 | active: 26.7 µM | – |
| C=CCN(N=Nc1cccc([N+](=O)[O-])c1)c1cccc([N+](=O)[O-])c1 | inconclusive: 37.7 µM [inhibitor, partial curve, poor fit] | – |
| COc1cccc(CCc2nnc(N)s2)c1 | inconclusive: 18.9 µM [inhibitor, partial curve] | – |
| N/C(=N\OS(=O)(=O)c1ccc2ccccc2c1)c1cccnc1 | inconclusive: 16.8 µM [inhibitor, partial curve] | – |
| Cc1ccc(NC(=O)CCN2C(=O)c3ccccc3C2=O)cc1 | inconclusive: 26.7 µM [inhibitor, partial curve] | – |
| COc1ccccc1CNCC(=O)Nc1ccc(N(C)C)cc1 | active: 26.7 µM | – |
| CCC(C)(O)c1[nH]c2ccc(C(=O)OC)cc2c1C (configuration not stated) | – | inactive: -2.83% |
| CN1CCN(C(=O)CCCN2C(=O)/C(=C/c3cccc(Br)c3)SC2=S)CC1 | inconclusive: 15 µM [inhibitor, partial curve] | – |
| CC(C)c1ccc(-c2nnc(N)s2)cc1 | inconclusive: 21.2 µM [inhibitor, partial curve] | – |
| O=C(O)C(CO)N=Cc1c(O)c2ccccc2oc1=O (configuration not stated) | inconclusive: 29.9 µM [inhibitor, partial curve] | – |
| Cc1ccc(Cn2c(CCNc3nc(-c4ccc(Cl)c([N+](=O)[O-])c4)cs3)nc3cc(Cl)c(Cl)cc32)cc1 | inconclusive: 26.7 µM [inhibitor, single point] | – |
| O=C(COc1cccc2ccccc12)N/N=C/C=C/c1ccccc1 | – | inactive: -5.79% |
| Clc1cccc(CN2CCCCCC2)c1Cl | – | inactive: -17.2% |
| O=c1c2cc(C(F)(F)F)ccc2sn1-c1ccccc1 | active: 2.67 µM | – |
| Cc1cc(C(=O)Nc2ccc(C(=O)O)cc2)c(C)o1 | – | inactive: -6.37% |
| O=C(NCc1cccnc1)/C(=C\c1ccc(-c2ccc(Br)cc2)o1)S(=O)(=O)c1ccccc1 | – | inconclusive: -36.1% [inhibitor] |
| O=C1NC(=O)C(=Cc2ccc(Cl)cc2Cl)S1 | inconclusive: 33.6 µM [inhibitor, partial curve, poor fit] | – |
| CC(=O)c1ccc(OCC(=O)NCC2(N3CCCCC3)CCCCC2)cc1 | – | inactive: 4.89% |
| CN1C(=O)C(CC(=O)Nc2ccc(F)cc2)N(Cc2ccco2)C1=S (configuration not stated) | inconclusive: 23.8 µM [inhibitor, single point] | – |
| CCNc1ccc(C(=O)OCC(=O)N2CCCC2)cc1[N+](=O)[O-] | active: 26.7 µM | – |
| CCC(OC(=O)CC1Sc2ccccc2NC1=O)C(=O)NCC1CCCO1 (configuration not stated) | inconclusive: 29.9 µM [inhibitor, partial curve] | – |

| SMILES | Potency | max response, negative = inhibition |
| --- | --- | --- |
| COc1c(C)cc(Br)cc1C(=O)Nc1cccc(-c2nc3ncccc3o2)c1 | – | inactive: -5.52% |
| CNc1nc(=S)[nH]c2ccccc12 | – | inconclusive: -30.6% [inhibitor] |
| CCCCCC(=O)O/N=C(\C)c1ccn(S(=O)(=O)c2ccccc2)c1 | – | inactive: 1.81% |
| COc1ccc(-c2ccc(C(=O)NCc3ccc(N4CCN(C)CC4)cc3)c3occc23)c(C)c1 | – | inactive: -1.68% |
| Cc1c(C)[n+](=O)c(C)c(C)n1[O-] | – | inconclusive: -30.5% [inhibitor] |
| O=C(NC(=S)Nc1sc2c(c1C(=O)O)CCCC2)c1ccccc1 | inconclusive: 33.6 µM [inhibitor, single point] | – |
| O=C(CN1CCN(Cc2ccccc2)CC1)Nc1ccc(Br)cc1 | – | inactive: -11.2% |
| O=C(CSc1ccc([N+](=O)[O-])cc1)Nc1cccc(S(=O)(=O)N2CCOCC2)c1 | inconclusive: 29.9 µM [inhibitor, partial curve] | – |
| C[N+](C)(C)CCN1CCc2ccccc21 | – | inactive: -2.05% |
| CCOC(=O)C1C(=O)NC(c2ccccc2)=NC1c1ccc(F)cc1 (configuration not stated) | inconclusive: 18.9 µM [inhibitor, partial curve] | – |
| CCc1cc2c(SCC(=O)N(C)C3CCS(=O)(=O)C3)ncnc2s1 (configuration not stated) | inconclusive: 29.9 µM [inhibitor, partial curve] | – |
| CCOc1ccc(C(=O)CC(C(=O)O)N2CCCCC2)cc1 (configuration not stated) | inconclusive: 21.2 µM [inhibitor, single point] | – |
| O=C(O)c1ccc2c(c1)C(=O)N(Cc1ccco1)C2=O | inconclusive: 21.2 µM [inhibitor, partial curve] | – |
| Cc1nc(/C(=N/O)C(N)=O)cs1 | active: 23.8 µM | – |
| CCCn1nc([N+](=O)[O-])c(C(C#N)c2nc3ccccc3s2)c(Cl)c1=O (configuration not stated) | active: 23.8 µM | – |
| Cn1c(=O)c(NC2CCCCC2)c2c3c(cccc31)C(=O)c1ccccc1-2 | – | inconclusive: -29.2% [inhibitor] |
| Nn1c(Cc2ccc(F)cc2)n[nH]c1=S | active: 18.9 µM | – |
| O=C(Nc1cccc(S(=O)(=O)Nc2ccccc2F)c1)c1ccco1 | inconclusive: 29.9 µM [inhibitor, single point] | – |
| COC(=O)C1=C(C)NC(=S)NC1c1ccco1 (configuration not stated) | inconclusive: 29.9 µM [inhibitor, single point] | – |
| O=C1CSC(=S)N1/N=C/c1c(F)cccc1F | inconclusive: 29.9 µM [inhibitor, partial curve] | – |
| O=C(O)c1cccc(CN2C(=O)SC(Nc3cccc4ccccc34)C2=O)c1 (configuration not stated) | inconclusive: 21.2 µM [inhibitor, partial curve] | – |
| CCOc1nc(N2CCOCC2)nc(C)c1[N+](=O)[O-] | active: 29.9 µM | – |
| O=C(CSc1nc2ccccc2n1CCc1ccccc1)c1ccc(O)c(O)c1 | inconclusive: 37.7 µM [inhibitor, partial curve, poor fit] | – |

Shown as labelled records: part of the list above.
COc1c(C)cc(Br)cc1C(=O)Nc1cccc(-c2nc3ncccc3o2)c1
  max response, negative = inhibition: inactive: -5.52%
CNc1nc(=S)[nH]c2ccccc12
  max response, negative = inhibition: inconclusive: -30.6% [inhibitor]

From PubChem BioAssay AID720504 (National Center for Advancing Translational Sciences (NCATS), 2013)
